# The other results are listed elsewhere or left out. The data scatter; read single values as rough.
# The chains behind the UniProt entries cited, without tags or fusion partners. Where a name states a change or a piece, a line headed by the entry shows the natural chain unless it says otherwise. Residues count along the entry.
# UniProt Q17RS7: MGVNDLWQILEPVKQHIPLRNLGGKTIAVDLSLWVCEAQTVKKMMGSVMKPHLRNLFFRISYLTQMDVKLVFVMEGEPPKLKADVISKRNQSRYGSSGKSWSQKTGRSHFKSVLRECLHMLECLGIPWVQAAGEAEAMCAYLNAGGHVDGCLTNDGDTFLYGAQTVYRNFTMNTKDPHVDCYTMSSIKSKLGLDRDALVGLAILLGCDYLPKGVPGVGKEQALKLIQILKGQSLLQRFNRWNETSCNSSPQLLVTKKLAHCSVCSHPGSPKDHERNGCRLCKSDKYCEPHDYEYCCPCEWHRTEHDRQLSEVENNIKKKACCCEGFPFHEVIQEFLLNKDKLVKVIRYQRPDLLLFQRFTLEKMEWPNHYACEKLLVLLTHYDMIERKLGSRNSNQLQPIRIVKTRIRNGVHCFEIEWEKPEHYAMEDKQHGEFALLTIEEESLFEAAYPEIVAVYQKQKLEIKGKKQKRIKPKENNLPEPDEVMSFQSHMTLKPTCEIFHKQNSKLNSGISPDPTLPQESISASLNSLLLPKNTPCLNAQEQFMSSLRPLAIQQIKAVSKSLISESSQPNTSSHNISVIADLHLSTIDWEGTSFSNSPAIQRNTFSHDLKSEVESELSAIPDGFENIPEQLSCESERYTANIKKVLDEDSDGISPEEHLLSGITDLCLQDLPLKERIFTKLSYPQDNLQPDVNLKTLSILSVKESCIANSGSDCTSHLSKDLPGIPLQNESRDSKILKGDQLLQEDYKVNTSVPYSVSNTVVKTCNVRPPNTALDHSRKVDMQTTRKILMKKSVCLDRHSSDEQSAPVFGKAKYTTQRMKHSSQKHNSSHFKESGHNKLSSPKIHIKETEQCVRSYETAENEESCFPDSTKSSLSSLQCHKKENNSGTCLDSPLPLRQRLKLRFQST
# UniProt Q08379: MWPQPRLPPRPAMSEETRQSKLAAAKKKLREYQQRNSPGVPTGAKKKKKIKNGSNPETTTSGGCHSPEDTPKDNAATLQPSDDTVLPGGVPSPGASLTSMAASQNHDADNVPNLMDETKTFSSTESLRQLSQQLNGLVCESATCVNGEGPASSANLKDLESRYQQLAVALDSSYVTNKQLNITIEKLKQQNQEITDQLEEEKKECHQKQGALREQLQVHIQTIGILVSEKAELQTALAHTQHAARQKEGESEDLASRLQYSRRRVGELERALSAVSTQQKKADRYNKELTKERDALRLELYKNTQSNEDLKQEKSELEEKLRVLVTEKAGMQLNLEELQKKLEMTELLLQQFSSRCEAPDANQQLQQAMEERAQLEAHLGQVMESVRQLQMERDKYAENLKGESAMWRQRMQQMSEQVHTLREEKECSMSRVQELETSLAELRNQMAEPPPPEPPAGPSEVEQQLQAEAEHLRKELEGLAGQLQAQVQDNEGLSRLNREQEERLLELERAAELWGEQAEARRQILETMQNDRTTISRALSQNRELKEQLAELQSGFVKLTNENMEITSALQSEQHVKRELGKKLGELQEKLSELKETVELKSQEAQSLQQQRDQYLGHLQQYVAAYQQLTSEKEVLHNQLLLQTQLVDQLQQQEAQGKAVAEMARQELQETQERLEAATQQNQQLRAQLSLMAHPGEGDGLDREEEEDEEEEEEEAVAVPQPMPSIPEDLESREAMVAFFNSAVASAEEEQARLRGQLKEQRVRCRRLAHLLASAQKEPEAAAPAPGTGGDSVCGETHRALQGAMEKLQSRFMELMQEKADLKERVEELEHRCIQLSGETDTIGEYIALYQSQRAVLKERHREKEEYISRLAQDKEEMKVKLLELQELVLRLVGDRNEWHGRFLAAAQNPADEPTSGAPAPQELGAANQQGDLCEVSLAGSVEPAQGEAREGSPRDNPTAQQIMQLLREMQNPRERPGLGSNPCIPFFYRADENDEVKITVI
# UniProt Q4V328: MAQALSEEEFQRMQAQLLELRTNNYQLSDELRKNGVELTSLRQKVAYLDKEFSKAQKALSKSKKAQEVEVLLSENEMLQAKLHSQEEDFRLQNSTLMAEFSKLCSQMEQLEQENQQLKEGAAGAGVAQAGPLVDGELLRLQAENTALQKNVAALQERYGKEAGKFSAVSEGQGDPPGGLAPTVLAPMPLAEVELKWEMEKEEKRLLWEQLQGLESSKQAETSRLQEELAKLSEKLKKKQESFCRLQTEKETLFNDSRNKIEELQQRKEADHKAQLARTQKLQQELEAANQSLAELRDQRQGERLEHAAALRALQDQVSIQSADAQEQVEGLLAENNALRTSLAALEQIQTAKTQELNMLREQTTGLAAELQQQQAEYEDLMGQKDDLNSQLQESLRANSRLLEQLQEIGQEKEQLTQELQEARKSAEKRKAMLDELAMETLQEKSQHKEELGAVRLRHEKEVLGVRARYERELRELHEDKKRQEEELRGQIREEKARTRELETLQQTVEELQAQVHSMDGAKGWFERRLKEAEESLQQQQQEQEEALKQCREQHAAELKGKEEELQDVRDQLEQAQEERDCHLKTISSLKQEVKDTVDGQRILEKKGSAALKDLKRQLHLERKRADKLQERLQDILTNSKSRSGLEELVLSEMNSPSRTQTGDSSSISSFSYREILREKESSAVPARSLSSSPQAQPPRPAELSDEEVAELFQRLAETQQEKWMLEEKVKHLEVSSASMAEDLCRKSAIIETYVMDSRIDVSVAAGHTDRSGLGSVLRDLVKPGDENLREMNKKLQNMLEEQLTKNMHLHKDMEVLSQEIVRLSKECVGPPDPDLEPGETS
# UniProt Q8IWJ2: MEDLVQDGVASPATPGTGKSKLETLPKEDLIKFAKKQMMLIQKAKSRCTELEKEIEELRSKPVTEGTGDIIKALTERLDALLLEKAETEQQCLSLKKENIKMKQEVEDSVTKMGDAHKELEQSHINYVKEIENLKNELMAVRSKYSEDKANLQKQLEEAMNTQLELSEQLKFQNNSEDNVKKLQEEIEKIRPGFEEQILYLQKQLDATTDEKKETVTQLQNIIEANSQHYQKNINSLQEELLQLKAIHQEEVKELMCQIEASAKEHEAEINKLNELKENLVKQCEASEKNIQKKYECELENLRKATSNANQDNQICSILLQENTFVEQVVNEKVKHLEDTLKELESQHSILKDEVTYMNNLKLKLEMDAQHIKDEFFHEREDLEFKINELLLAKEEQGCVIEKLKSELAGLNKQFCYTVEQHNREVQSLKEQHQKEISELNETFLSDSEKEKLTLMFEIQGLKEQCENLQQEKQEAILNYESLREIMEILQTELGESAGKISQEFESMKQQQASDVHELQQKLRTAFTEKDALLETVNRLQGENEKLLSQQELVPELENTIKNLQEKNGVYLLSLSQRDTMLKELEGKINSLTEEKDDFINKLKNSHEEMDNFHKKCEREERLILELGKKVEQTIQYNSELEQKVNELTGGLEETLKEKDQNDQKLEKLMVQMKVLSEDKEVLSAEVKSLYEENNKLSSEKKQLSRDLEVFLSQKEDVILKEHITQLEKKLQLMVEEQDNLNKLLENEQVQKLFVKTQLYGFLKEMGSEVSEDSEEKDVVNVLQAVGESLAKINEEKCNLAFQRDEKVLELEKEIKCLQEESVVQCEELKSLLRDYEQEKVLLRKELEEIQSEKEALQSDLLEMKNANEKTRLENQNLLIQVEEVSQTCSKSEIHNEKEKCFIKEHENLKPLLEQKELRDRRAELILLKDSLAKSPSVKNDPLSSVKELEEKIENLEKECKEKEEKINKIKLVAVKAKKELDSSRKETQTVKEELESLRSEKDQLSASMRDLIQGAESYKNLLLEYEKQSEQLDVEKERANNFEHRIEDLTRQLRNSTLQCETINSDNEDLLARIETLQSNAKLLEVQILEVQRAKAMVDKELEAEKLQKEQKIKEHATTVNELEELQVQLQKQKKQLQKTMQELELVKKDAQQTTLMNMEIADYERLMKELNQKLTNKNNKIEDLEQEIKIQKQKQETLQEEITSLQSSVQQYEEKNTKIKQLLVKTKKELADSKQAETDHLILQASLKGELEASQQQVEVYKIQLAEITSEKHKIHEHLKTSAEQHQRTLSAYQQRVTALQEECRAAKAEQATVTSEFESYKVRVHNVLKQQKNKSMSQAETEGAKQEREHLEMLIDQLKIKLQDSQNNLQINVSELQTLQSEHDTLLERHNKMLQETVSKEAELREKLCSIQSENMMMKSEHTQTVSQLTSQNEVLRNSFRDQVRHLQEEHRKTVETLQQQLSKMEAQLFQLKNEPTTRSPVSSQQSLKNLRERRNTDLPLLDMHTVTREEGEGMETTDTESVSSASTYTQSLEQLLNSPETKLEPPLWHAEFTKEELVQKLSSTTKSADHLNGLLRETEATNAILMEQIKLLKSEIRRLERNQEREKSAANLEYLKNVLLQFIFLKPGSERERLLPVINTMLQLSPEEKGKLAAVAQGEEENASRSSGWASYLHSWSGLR
# UniProt P35626: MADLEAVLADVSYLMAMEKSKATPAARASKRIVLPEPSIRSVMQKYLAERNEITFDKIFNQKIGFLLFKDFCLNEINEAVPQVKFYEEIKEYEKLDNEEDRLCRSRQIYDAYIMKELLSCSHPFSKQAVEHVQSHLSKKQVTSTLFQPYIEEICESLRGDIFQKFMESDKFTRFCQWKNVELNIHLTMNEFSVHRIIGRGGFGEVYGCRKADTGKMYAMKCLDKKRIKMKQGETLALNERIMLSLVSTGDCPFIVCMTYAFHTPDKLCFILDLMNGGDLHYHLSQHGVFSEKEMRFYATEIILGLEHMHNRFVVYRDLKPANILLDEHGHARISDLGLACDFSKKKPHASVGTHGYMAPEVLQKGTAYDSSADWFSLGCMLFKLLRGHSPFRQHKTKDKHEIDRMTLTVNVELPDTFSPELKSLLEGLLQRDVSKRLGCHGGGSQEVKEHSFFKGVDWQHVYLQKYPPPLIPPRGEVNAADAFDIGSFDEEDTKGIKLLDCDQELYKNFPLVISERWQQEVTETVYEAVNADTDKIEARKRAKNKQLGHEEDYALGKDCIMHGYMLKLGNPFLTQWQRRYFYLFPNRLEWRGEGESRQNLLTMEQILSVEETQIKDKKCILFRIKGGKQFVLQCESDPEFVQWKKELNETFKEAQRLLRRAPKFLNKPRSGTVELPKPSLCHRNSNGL
# UniProt P15170, whole entry, looked up: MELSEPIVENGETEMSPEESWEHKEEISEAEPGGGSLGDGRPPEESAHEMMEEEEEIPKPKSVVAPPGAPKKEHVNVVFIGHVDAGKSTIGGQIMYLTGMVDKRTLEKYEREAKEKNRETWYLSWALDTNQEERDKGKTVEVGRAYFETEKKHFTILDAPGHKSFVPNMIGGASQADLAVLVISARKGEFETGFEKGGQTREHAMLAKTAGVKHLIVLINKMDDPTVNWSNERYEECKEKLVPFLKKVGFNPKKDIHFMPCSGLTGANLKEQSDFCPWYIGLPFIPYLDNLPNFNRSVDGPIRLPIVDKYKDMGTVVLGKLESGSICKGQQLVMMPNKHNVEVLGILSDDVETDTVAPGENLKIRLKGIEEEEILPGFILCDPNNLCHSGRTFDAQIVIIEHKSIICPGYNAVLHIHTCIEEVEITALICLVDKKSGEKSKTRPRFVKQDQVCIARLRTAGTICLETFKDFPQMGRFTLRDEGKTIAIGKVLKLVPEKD
# UniProt Q14789, 1143-1165: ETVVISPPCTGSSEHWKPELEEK
# UniProt Q86YR5, 515-536: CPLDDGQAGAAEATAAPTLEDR
# UniProt Q14161: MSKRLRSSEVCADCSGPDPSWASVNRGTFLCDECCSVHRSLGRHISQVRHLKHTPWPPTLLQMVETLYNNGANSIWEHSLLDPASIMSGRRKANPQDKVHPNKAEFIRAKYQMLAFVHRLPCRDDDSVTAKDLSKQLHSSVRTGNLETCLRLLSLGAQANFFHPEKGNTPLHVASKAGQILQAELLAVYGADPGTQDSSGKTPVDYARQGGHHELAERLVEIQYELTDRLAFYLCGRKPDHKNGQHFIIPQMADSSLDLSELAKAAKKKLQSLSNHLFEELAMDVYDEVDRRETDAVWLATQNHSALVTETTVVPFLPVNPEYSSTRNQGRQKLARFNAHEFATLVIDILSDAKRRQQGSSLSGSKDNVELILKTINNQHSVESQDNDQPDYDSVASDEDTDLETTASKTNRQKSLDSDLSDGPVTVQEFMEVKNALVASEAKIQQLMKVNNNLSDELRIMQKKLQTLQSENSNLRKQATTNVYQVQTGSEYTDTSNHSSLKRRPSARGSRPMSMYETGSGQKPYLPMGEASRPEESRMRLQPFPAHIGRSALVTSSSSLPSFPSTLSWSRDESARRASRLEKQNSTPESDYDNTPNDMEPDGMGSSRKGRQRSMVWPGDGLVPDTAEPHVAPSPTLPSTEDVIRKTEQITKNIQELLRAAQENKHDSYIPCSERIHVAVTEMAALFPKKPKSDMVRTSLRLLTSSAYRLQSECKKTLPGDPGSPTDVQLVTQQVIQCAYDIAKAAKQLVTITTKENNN
# UniProt Q5T7V8, 109-132: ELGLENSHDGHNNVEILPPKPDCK
# Columns and labels:
# [1] = compound: ClCC(=O)N[C@@H]1CCCc2ccccc12; assay: log2 mean competition ratio of IA-DTB cysteine labelling (DMSO/compound) (log2 ratio); higher = stronger cysteine engagement by compound; conditions: treatment time: 4 h, cell line lysate: HEK293T
# Method: (§1)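 IA-DTB competitive cysteine chemoproteomics in HEK293T RIPA lysate. Lysates were treated with compound 29 or 30 at 50 or 200 µM for 4 h, then IA-DTB (500 µM, 1 h), trypsin-digested, NeutrAvidin-enriched and analysed by diaPASEF. Competition ratio = intensity DMSO / intensity compound (n=4 treated, n=64 DMSO); binding: mean log2 CR ≥ 1 and p ≤ 0.05 plus QC filters. Target is the cysteine site.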
# [2] = compound: ClCC(=O)N[C@H]1CCCc2ccccc12; assay: as above; conditions: treatment time: 4 h, cell line lysate: HEK293T
# Method: as §1
target,measurement,setting,value
GEN1 C766 (UniProt Q17RS7),log2 mean competition ratio,[1]; 50 µM,-0.313
same,log2 mean competition ratio,[1]; 200 µM,-0.321
same,log2 mean competition ratio,[2]; 50 µM,0.0882
same,log2 mean competition ratio,[2]; 200 µM,-0.194
GOLGA2 C356 (UniProt Q08379),log2 mean competition ratio,[1]; 50 µM,-0.059
same,log2 mean competition ratio,[1]; 200 µM,-0.183
same,log2 mean competition ratio,[2]; 50 µM,0.522
same,log2 mean competition ratio,[2]; 200 µM,0.568
GPR180 C91 (UniProt Q86V85),log2 mean competition ratio,[1]; 50 µM,-0.0345
same,log2 mean competition ratio,[1]; 200 µM,-0.0425
same,log2 mean competition ratio,[2]; 50 µM,-0.071
same,log2 mean competition ratio,[2]; 200 µM,-0.0224
GNL2 C257 (UniProt Q13823),log2 mean competition ratio,[1]; 50 µM,0.314
same,log2 mean competition ratio,[1]; 200 µM,0.137
same,log2 mean competition ratio,[2]; 50 µM,0.000593
same,log2 mean competition ratio,[2]; 200 µM,0.0301
GRIPAP1 C581 (UniProt Q4V328),log2 mean competition ratio,[1]; 50 µM,-0.0492
same,log2 mean competition ratio,[1]; 200 µM,-0.249
same,log2 mean competition ratio,[2]; 50 µM,-0.342
same,log2 mean competition ratio,[2]; 200 µM,-0.154
GCC2 C889 (UniProt Q8IWJ2),log2 mean competition ratio,[1]; 50 µM,-0.388
same,log2 mean competition ratio,[1]; 200 µM,0.332
same,log2 mean competition ratio,[2]; 50 µM,-0.164
same,log2 mean competition ratio,[2]; 200 µM,0.246
GRK3 C103 (UniProt P35626),log2 mean competition ratio,[1]; 50 µM,-0.191
same,log2 mean competition ratio,[1]; 200 µM,0.343
same,log2 mean competition ratio,[2]; 50 µM,-0.434
same,log2 mean competition ratio,[2]; 200 µM,0.269
GRIPAP1 C744 (UniProt Q4V328),log2 mean competition ratio,[1]; 50 µM,0.162
same,log2 mean competition ratio,[1]; 200 µM,-0.0969
same,log2 mean competition ratio,[2]; 50 µM,0.443
same,log2 mean competition ratio,[2]; 200 µM,-0.123
GRN C178 (UniProt P28799),log2 mean competition ratio,[1]; 50 µM,0.174
same,log2 mean competition ratio,[1]; 200 µM,0.122
same,log2 mean competition ratio,[2]; 50 µM,-0.157
same,log2 mean competition ratio,[2]; 200 µM,-0.0982
GSPT1 C327 (UniProt P15170),log2 mean competition ratio,[1]; 50 µM,-0.096
same,log2 mean competition ratio,[1]; 200 µM,-0.043
same,log2 mean competition ratio,[2]; 50 µM,0.084
same,log2 mean competition ratio,[2]; 200 µM,-0.0842
GOLGB1 C2664 (UniProt Q14789),log2 mean competition ratio,[1]; 50 µM,-0.224
same,log2 mean competition ratio,[1]; 200 µM,-0.238
same,log2 mean competition ratio,[2]; 50 µM,-0.495
same,log2 mean competition ratio,[2]; 200 µM,-0.218
GPSM1 C515 (UniProt Q86YR5),log2 mean competition ratio,[1]; 50 µM,-0.233
same,log2 mean competition ratio,[1]; 200 µM,-0.247
same,log2 mean competition ratio,[2]; 50 µM,0.0699
same,log2 mean competition ratio,[2]; 200 µM,-0.1
GIT2 C149 (UniProt Q14161),log2 mean competition ratio,[1]; 50 µM,-0.0855
same,log2 mean competition ratio,[1]; 200 µM,-0.157
same,log2 mean competition ratio,[2]; 50 µM,0.175
same,log2 mean competition ratio,[2]; 200 µM,0.108
GORAB C131 (UniProt Q5T7V8),log2 mean competition ratio,[1]; 50 µM,-0.346
same,log2 mean competition ratio,[1]; 200 µM,-0.0953
same,log2 mean competition ratio,[2]; 50 µM,0.0196
same,log2 mean competition ratio,[2]; 200 µM,-0.0238
GPD2 C45 (UniProt P43304),log2 mean competition ratio,[1]; 50 µM,0.0728
same,log2 mean competition ratio,[1]; 200 µM,-0.385
same,log2 mean competition ratio,[2]; 50 µM,0.197
same,log2 mean competition ratio,[2]; 200 µM,-0.288
GOLGB1 C1151 (UniProt Q14789),log2 mean competition ratio,[1]; 50 µM,-0.228
same,log2 mean competition ratio,[1]; 200 µM,-0.216
same,log2 mean competition ratio,[2]; 50 µM,0.198
same,log2 mean competition ratio,[2]; 200 µM,-0.0517

# Rewritten with bars between the fields: part of the list above
target | measurement | setting | value
GRK3 C103 (UniProt P35626) | log2 mean competition ratio | [2]; 200 µM | 0.269
GRIPAP1 C744 (UniProt Q4V328) | log2 mean competition ratio | [1]; 50 µM | 0.162
same | log2 mean competition ratio | [1]; 200 µM | -0.0969
same | log2 mean competition ratio | [2]; 50 µM | 0.443

# Reference: the supplement of paper PMC11732987, “Enantioselective OTUD7B fragment discovery through chemoproteomics screening and high-throughput optimisation” (Communications Chemistry, 2025)
